# Experimental data: patent publication US20180289957A1, “REMINERALISATION OF CALCIFIED TISSUE” (Reminova Ltd., priority 2008, published 2018)
# Test system: extracted tooth
# Experiment: Current-time response of an extracted tooth (saline pad) after hypochlorite pre-treatment
# Method: In this experiment the current-time responses of an extracted tooth after the application of −I V at the working electrode were recorded. One electrode the shorted reference/counter electrode) was a 0.5 mm stainless steel wire inserted into the tooth root. The other electrode (the working electrode) was a Pt sheet electrode of area ca 0.25 cm^2 held in contact with a saline-soaked tissue pad, which in turn was held in contact with the tooth surface close to the enamel lesion.
# The initial current after this topical hypochlorite pre-treatment was 18 μA, over 20% higher than that of the tooth before pre-treatment, and the extended-time current was similar.
compound,measurement,setting,value
"OCl [hypochlorite, sodium hypochlorite]",initial current after topical hypochlorite pre-treatment,"saline response, hypochlorite-soaked pad 3 mins, no voltage during pre-treatment, -1 V at working electrode",18 μA
same,initial current higher than that of the tooth before pre-treatment,topical hypochlorite pad 3 mins,over 20%
